This note sets out measurements from article doi:10.1101/2021.02.16.431372.

No constants are given. Whether binding was seen depends on the method and setting. Binding seen in cells or lysates may run through a third protein. Binding calls can cover weak binding; strength is not graded here. Tags and fused reporters may be left off the sequences shown.

The target in this assay is T1, voltage dependent anion channel 2 (VDAC2) (pig (endogenous in pig sperm)) (UniProt Q9MZ15).
T1 sequence: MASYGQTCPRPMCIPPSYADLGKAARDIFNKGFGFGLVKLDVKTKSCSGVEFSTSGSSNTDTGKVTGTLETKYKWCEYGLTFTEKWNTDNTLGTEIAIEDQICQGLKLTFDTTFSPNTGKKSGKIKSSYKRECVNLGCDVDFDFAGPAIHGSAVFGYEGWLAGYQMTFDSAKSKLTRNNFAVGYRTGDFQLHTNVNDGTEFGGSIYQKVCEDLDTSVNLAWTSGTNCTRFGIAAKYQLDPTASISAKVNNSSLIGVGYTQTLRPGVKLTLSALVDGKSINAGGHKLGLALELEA
The experiment in a line: cross-linking.

In the case of “glycerol kinase (GK) (pig (endogenous in pig sperm))”, the binding result was “binds”.
